# Where “and” joins values, the source holds several entries; their conditions need not be identical. Equal values may be shown once. The campaign covered roughly 240,000 compounds. About 1,300 (0.54%) were called active. This list was built around the results that the source calls inconclusive (neither active nor inactive); the mix of calls is not that of the screen. Calls follow the shape of the dose curve; as a rule, active = well fitted inhibition curve with a large enough effect; inconclusive = small, poorly fitted or top-dose-only effect; inactive = flat fitted curve, though single readings scatter. A potency beside an inconclusive call is a rough fit, not a confirmed value.
# Protein sequences, listed by entry. Tags and fused reporters are not part of them. Lines headed by an entry give the natural chain unless they say otherwise; changes in a name come on top.
# UniProt P46063: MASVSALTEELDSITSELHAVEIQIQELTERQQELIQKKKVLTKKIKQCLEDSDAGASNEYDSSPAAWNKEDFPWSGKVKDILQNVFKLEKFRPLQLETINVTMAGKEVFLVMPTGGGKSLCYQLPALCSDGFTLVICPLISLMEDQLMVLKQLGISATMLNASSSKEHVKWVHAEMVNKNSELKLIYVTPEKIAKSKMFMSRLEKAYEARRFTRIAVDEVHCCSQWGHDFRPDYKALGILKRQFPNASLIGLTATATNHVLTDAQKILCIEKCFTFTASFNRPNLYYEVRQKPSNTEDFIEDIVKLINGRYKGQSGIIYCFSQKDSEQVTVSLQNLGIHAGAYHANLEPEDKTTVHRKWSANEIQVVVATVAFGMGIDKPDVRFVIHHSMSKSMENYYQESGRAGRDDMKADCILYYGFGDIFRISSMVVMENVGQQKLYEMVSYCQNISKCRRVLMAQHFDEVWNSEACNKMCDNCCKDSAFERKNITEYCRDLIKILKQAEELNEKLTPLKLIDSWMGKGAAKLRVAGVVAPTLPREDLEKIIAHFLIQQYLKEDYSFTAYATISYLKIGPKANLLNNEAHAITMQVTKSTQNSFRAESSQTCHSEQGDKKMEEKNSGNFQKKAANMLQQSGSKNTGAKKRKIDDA
# Target: ATP-dependent DNA helicase Q1 (Homo sapiens) (UniProt P46063)
# Experiment: qHTS Assay for Inhibitors of RecQ-Like Dna Helicase 1 (RECQ1); also: nearly all actives have a fitted effect of over 30% in size
# Settings: RECQ1 DNA unwinding, red fluorescence kinetic read; series mostly up to 57.3 µM
# In short: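 50 nM RECQ1T1 preincubated 15 min with compound in Tris pH 8.0 buffer with MgCl2, DTT, Tween-20 and 2.5 ug/ml poly(dI-dC); started with 200 nM TAMRA/BHQ-2 forked duplex and 2 mM ATP. Unwinding read as fluorescence (525/598 nm), two reads 2 h apart.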
# Potency is read from the fitted curve at half-maximal effect.
row,Structure (SMILES),Potency
1,C=C(C)COc1ccc2oc(C)c(C(=O)OCCOC)c2c1,"inconclusive: 1 µM [inhibitor, full curve, poor fit]"
2,Cc1ccc(O)c(C(=O)c2cc(C#N)c(=O)n(-c3nccs3)c2)c1,"inconclusive: 39.8 µM [inhibitor, single point]"
3,Cc1nnc(SCC(=O)Nc2ccc3c(c2)COC3=O)n1-c1ccccc1,"inconclusive: 39.8 µM [inhibitor, single point]"
4,N[C@@H](Cc1ccc(O)c(O)c1)C(=O)O,active: 12.6 µM
5,CCN(CC)c1ccc2c(Cl)cc(=O)oc2c1,inactive
6,COc1cc(/C=N/N2C(=O)CSC2=S)cc(Br)c1O,active: 35.5 µM
7,Cc1ccc(-c2cc(C(=O)n3cnc4ccccc43)c3ccccc3n2)cc1C,"inconclusive: 25.1 µM [inhibitor, single point]"
8,CC1(COc2ccc(CC3SC(=O)NC3=O)cc2)CCCCC1 (stereo not given),"inconclusive: 39.8 µM [inhibitor, single point]"
9,Cc1cc(Nc2ccc(O)cc2)ccc1N,"inconclusive: 39.8 µM [inhibitor, partial curve, poor fit]"
10,O=C1C(Cl)=C(N2CCCCC2)C(=O)C(Cl)=C1c1cnc(N2CCCCC2)s1,active: 15.8 µM
11,C=CCN1C(=O)/C(=C/C=C2/N(CC)c3ccc(S(=O)(=O)N(C)C)cc3N2CC)SC1=S,active: 3.98 µM
12,O=C(CSc1ccc(-c2nc3ccccc3[nH]2)cn1)N1CCN(C(=O)c2ccco2)CC1,"inconclusive: 3.98 µM [inhibitor, full curve, poor fit]"
13,COc1cc(-c2noc(C3CCCN(S(=O)(=O)c4cccc(Cl)c4)C3)n2)cc(OC)c1OC (stereo not given),"inconclusive: 4.47 µM [inhibitor, partial curve, poor fit]"
14,CCOC(=O)NC1(NCC(C)C)Oc2ccccc2O1,"inconclusive: 15.8 µM [inhibitor, partial curve]"
15,COc1ccc(/C=C2\C(=O)NC(=S)N2C(=O)c2ccc(C)cc2)cc1,inactive
16,CCO/C=C1\SC(=S)N(c2ccc(Cl)cc2)C1=O,"inconclusive: 39.8 µM [inhibitor, single point]"
17,CC(C)CNC(=O)CCCc1c[nH]c2ccccc12,"inconclusive: 0.631 µM [inhibitor, partial curve, poor fit]"
18,O=C(Nc1nnc(C2CC2)s1)C1CC(=O)N(c2ccc3c(c2)OCCO3)C1 (stereo not given),active: 28.2 µM
19,COCCN(CCOC)S(=O)(=O)c1ccc(C(=O)Nc2nnc(CSC)o2)cc1,"inconclusive: 2.24 µM [inhibitor, partial curve]"
20,CCc1c(C)c2cc(Cl)c(O)c(CN(C)C)c2oc1=O,inactive
21,O=C(/C=C/c1ccc(F)cc1)c1cc(Br)ccc1O,inactive
22,CCc1sc(C(C2C(=O)CC(C)(C)CC2=O)C2C(=O)CC(C)(C)CC2=O)cc1[N+](=O)[O-],active: 3.16 µM
23,Cc1c(Cl)cccc1NC(=S)Nn1cnnc1,"inconclusive: 3.16 µM [inhibitor, partial curve]"
24,O=c1cc2ncc(-n3cc([N+](=O)[O-])cn3)cn2[nH]1,"inconclusive: 39.8 µM [inhibitor, single point]"

row,Structure (SMILES),Potency
1,COc1ccccc1NC(=O)C12CC3CC(C1)CC(c1ccc(C)cc1)(C3)C2,active: 31.6 µM
2,O=C(OC1CCCCC1)c1ccc2c(c1)C1C=CCC1C(C(=O)O)N2 (stereo not given),active: 7.94 µM
3,CC(Sc1nnc(COc2ccccc2)n1Cc1ccccc1)C(=O)O (stereo not given),inactive
4,CCC(=O)NCCCOc1ccccc1,"inconclusive: 0.0251 µM [inhibitor, full curve]"
5,CC(NC(=O)C1CCC1)c1ccccc1 (stereo not given),"inconclusive: 1.12 µM [inhibitor, full curve]"
6,C/C(N)=C(/C#N)C(=O)COC(=O)c1cc(-c2ccc(Br)cc2)nc2ccccc12,inactive
7,C[C@H](CCC(=O)NCC(=O)O)C1CC[C@H]2[C@H]3C(C[C@H](O)[C@]12C)[C@@]1(C)CC[C@@H](O)C[C@H]1C[C@H]3O (stereo not given in full),inactive
8,Cc1ccccc1C(=O)NC(=S)NCC1CCCO1 (stereo not given),inactive
9,O=c1c2ccccc2nnn1CSc1nnc(-c2ccco2)o1,"inconclusive: 0.0562 µM [inhibitor, partial curve, poor fit]"
10,Cn1nnnc1SCC1=C(C(=O)O)N2C(=O)C(NC(=O)Cn3nc(C(F)F)cc3C3CC3)C2SC1 (stereo not given),inactive
11,O=C1c2c(O)ccc(O)c2C(=O)c2c(NCCNCCO)ccc(NCCNCCO)c21,active: 12.6 µM and active: 22.4 µM and active: 3.55 µM
12,O=c1[nH]c2cc3c(cc2cc1CN(Cc1cccnc1)Cc1nnnn1Cc1ccco1)OCCO3,"inconclusive: 22.4 µM [inhibitor, partial curve]"
13,CC(=O)c1ccc2c3c(cccc13)CC2,inactive
14,COc1cc(/C=C2\SC(=O)N(c3ccccc3Cl)C2=O)cc([N+](=O)[O-])c1O,"inconclusive: 39.8 µM [inhibitor, single point]"
15,O=C(Nc1ccc2nc(-c3ccc(Br)o3)[nH]c2c1)c1ccco1,"inconclusive: 25.1 µM [inhibitor, partial curve, poor fit]"
16,N#C/C(=C/c1cccn1-c1cccc(C(=O)O)c1)c1ccc(Cl)cc1,"inconclusive: 31.6 µM [inhibitor, single point]"
17,CN(C)c1ccc(NC(=O)c2cccc(C(=O)Nc3ccc(N(C)C)cc3)n2)cc1,"inconclusive: 8.91 µM [inhibitor, partial curve]"
18,O=C(N/N=C/c1ccc(O)c(O)c1)c1cccc(S(=O)(=O)N2CCCCC2)c1,inactive
19,Cc1ccc(NCc2nnc(SCC(=O)c3ccc4c(c3)OCCO4)o2)c(C)c1,"inconclusive: 3.16 µM [inhibitor, single point]"
20,O=C(N/N=C/c1cc(O)ccc1[N+](=O)[O-])c1ccc2c(c1)OCCO2,"inconclusive: 0.199 µM [inhibitor, full curve]"
21,CC(C)Cc1nnc(NC(=O)Cc2cccs2)s1,"inconclusive: 28.2 µM [inhibitor, single point]"
22,CC(=O)Oc1ccc2c(=O)c(Oc3ccccc3)coc2c1OC(C)=O,active: 3.55 µM
23,CC(C)CSC1=NSC2=NC(=O)/C(=C\c3ccccc3)C(=N)N12,"inconclusive: 28.2 µM [inhibitor, single point]"
24,CCN(CC)CCCn1c(-c2ccccc2)nc2c(NCCOC)nc(C)nc21,inactive

# 4 entries drawn at random from the list so far, as already listed:
row,Structure (SMILES),Potency
17,CC(C)CNC(=O)CCCc1c[nH]c2ccccc12,"inconclusive: 0.631 µM [inhibitor, partial curve, poor fit]"
3,CC(Sc1nnc(COc2ccccc2)n1Cc1ccccc1)C(=O)O (stereo not given),inactive
16,CCO/C=C1\SC(=S)N(c2ccc(Cl)cc2)C1=O,"inconclusive: 39.8 µM [inhibitor, single point]"
16,N#C/C(=C/c1cccn1-c1cccc(C(=O)O)c1)c1ccc(Cl)cc1,"inconclusive: 31.6 µM [inhibitor, single point]"

# The results go on.

row,Structure (SMILES),Potency
1,COc1ccc(NC(=O)COC(=O)c2cc(SC)ccc2Cl)c(OC)c1,"inconclusive: 0.158 µM [inhibitor, partial curve, poor fit]"
2,CCN(CC)c1ccc(C(=O)Nc2cccc(F)c2)cc1,"inconclusive: 0.112 µM [inhibitor, full curve, poor fit]"
3,Cc1cc([N+](=O)[O-])c2c(c1C)C1C=CCC1C(c1ccccn1)N2 (stereo not given),"inconclusive: 15.8 µM [inhibitor, single point]"
4,COc1cc(C2C(C#N)=C(C)NC3=C2C(=O)c2ccccc23)cc(OC)c1OC (stereo not given),"inconclusive: 5.62 µM [inhibitor, single point]"
5,Cc1ccc(C(=O)N/N=C/c2cccc(OC(=O)/C=C/c3ccco3)c2)cn1,"inconclusive: 25.1 µM [inhibitor, single point]"
6,Nc1ccc(N(CCO)CCO)cc1,"inconclusive: 39.8 µM [inhibitor, single point]"
7,COc1cccc(C(=O)Nc2nc(-c3ccccc3)c(-c3ccccc3)o2)c1,"inconclusive: 0.0282 µM [inhibitor, full curve]"
8,COc1cccc(CN(C)C(=O)c2ccc3nccnc3c2)c1,"inconclusive: 0.501 µM [inhibitor, partial curve, poor fit]"
9,O=C1C=CC2=C3c4cc(O)c(O)cc4CC3(O)COC2=C1O (stereo not given),active: 1.26 µM
10,Cc1occc1-c1nnc(SCC(=O)Nc2ccccn2)o1,"inconclusive: 0.112 µM [inhibitor, full curve, poor fit]"
11,Cc1ccc(C2=NN=C(NC(=O)CSc3nnc4c5ccccc5n(C)c4n3)SC2)cc1,active: 11.2 µM
12,COc1cc(/C=N\NC(=O)c2ccc(Cn3nc([N+](=O)[O-])c(Cl)c3C)o2)ccc1O,inactive
13,COc1cccc(CNc2nc3nc(C)c(Cl)c(C)n3n2)c1,"inconclusive: 0.1 µM [inhibitor, partial curve, poor fit]"
14,C/C(=N\NC(=O)c1ccc(N/N=C(\C)c2ccncc2)cc1)c1ccncc1,"inconclusive: 2.82 µM [inhibitor, full curve]"
15,CCOC(=O)c1c(/N=C/c2ccc(OC)cc2O)sc2c1CCN(C)C2,"inconclusive: 28.2 µM [inhibitor, partial curve]"
16,Nc1ccc(Nc2ccccc2)c(S(=O)(=O)O)c1,"inconclusive: 39.8 µM [inhibitor, single point]"
17,O=[N+]([O-])c1cc(C2Nc3cccc4cccc(c34)N2)ccc1Cl,"inconclusive: 0.891 µM [inhibitor, single point]"
18,CCOC(=O)c1sc2nc3c(SCC(=O)O)cc(C(=O)c4cc(F)ccc4O)cn3c(=O)c2c1C,"inconclusive: 28.2 µM [inhibitor, single point]"
19,Cc1nc2nc(-c3cccs3)cn2nc1C,inactive
20,CCOC(=O)c1cc2c(=O)n3ccccc3nc2n(Cc2ccco2)c1=NC(=O)c1ccccc1OC,inactive
21,CCOc1cc(NC(=O)c2cccs2)c(OCC)cc1NC(=O)c1ccco1,"inconclusive: 0.126 µM [inhibitor, full curve, poor fit]"
22,COc1ccc(N=Nc2[nH]c3ccc(C)cc3c2O)cc1,inactive

# Reference: PubChem BioAssay AID2549 (National Center for Advancing Translational Sciences (NCATS), 2010)
